Results are given in words; binding and its absence hold for the method and conditions named. Some binding calls cover weakened binding; strength is not graded here.
What was measured:
[1] = molecular target: T1, Arabidopsis thaliana ARGONAUTE10 (Arabidopsis thaliana) (UniProt Q9XGW1); assay: pull-down; without ATP; details in Supplementary Figure S8D,E (not shown); both purified
T1 sequence: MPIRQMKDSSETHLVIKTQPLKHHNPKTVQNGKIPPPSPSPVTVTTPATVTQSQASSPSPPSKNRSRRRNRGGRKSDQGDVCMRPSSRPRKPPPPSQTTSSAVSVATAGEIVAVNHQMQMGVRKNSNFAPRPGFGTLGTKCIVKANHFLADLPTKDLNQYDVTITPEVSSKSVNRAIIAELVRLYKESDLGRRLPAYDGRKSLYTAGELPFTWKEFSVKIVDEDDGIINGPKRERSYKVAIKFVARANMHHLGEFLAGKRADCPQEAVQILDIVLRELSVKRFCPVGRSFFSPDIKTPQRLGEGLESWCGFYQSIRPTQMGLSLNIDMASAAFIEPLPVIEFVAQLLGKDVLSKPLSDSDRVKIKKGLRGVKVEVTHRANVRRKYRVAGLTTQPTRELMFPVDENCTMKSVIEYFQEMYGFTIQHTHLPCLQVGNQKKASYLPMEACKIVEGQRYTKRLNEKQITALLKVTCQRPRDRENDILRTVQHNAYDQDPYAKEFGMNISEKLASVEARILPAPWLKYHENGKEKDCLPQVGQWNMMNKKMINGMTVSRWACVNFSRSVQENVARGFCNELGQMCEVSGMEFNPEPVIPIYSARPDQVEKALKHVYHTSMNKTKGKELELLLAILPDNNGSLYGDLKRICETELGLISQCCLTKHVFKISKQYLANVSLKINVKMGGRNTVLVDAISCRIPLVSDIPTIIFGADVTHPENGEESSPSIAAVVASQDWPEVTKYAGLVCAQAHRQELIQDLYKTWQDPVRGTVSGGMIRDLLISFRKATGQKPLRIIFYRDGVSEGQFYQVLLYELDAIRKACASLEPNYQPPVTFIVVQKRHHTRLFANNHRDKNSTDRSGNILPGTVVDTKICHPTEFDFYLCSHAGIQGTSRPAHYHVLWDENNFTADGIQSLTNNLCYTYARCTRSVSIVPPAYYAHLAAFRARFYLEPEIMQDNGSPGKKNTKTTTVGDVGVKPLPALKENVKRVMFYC

Chains of the proteins cited; added tags and fusions are not shown.
UniProt P51818: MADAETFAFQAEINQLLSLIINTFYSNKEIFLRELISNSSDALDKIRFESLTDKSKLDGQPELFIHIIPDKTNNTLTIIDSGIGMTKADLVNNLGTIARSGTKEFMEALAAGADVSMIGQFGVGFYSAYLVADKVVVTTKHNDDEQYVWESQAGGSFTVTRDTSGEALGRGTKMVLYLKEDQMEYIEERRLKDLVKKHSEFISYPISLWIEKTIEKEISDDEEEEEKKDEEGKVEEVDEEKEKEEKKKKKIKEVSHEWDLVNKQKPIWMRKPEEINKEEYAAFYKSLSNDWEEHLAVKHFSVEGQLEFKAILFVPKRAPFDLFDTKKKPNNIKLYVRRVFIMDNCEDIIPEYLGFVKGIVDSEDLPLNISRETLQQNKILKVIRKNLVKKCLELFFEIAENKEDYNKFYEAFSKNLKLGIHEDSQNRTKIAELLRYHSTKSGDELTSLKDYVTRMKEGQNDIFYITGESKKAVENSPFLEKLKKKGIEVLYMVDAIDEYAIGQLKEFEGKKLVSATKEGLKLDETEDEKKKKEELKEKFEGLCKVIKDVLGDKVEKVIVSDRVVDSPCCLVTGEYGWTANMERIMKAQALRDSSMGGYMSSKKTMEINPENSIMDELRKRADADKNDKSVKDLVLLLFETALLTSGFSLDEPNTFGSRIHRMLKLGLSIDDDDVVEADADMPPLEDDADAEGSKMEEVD

[2] = molecular target: T1, Arabidopsis thaliana ARGONAUTE10 (Arabidopsis thaliana); assay: pull-down; immobilized AtAGO10 pulls down HSP70 and HSP90, also both simultaneously; details in Supplementary Figure S8B-E (not shown); both purified

AtHsp90.3 (AT5G56010.1) (from UniProt P51818 1-699)
binding [1]: binds | binding [2]: binds

— publication PMC9508841
